# Assay results taken from PubChem BioAssay AID720627 (Broad Institute, 2013).
# The other results are listed elsewhere or left out. Where no call is shown, the source marks the result inconclusive.
# Assay: PubChem AID 720627
# Details: C2C12 HRAS, caspase 3/7 luminescence, apoptosis; at 35 µM (top of the series)
smiles,measurement,value
CO[C@H]1C[C@@H]2CC[C@@H](C)[C@@](O)(O2)C(=O)C(=O)N2CCCC[C@H]2C(=O)O[C@H]([C@H](C)C[C@@H]2CC[C@@H](O)[C@H](OC)C2)CC(=O)[C@H](C)/C=C(\C)[C@@H](O)[C@@H](OC)C(=O)[C@H](C)C[C@H](C)/C=C/C=C/C=C/1C,caspase activation,105%
